The source of these data is patent US20230174619A1 (published 2023).

By UniProt entry, the sequences of proteins in these tests, tags left out. Where a name states a change or a piece, a line headed by the entry shows the natural chain unless it says otherwise. Residues count along the entry.
UniProt Q15116, residues 25-288: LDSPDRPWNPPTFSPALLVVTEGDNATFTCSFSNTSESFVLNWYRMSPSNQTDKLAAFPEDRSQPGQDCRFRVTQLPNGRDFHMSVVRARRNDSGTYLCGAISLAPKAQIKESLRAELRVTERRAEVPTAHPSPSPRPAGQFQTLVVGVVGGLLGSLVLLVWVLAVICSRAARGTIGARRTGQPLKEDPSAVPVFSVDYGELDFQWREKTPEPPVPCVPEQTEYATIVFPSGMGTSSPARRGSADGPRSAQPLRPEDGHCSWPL
UniProt Q9EP73: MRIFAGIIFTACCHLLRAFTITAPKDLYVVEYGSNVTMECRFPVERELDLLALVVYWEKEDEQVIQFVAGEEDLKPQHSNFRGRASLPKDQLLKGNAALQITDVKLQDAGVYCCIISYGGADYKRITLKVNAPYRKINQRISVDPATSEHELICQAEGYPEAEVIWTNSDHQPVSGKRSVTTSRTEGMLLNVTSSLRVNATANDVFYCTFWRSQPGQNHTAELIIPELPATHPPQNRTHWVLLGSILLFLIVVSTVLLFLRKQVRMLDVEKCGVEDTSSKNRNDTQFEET

For this experiment, the target named is PD-1 on human T cells (CD4+ and CD8+ T cells of PBMCs from human blood donors) (human) (UniProt Q15116). As to the kind of experiment: conclusion from flow cytometry of PD-1 on T cells in mixed lymphocyte reaction cultures.

No constants are given. Whether binding was seen depends on the method and setting. Some binding calls cover weakened binding; strength is not graded here.

Consider “PHI258 (PD-L1 variant 258) as added to the mixed lymphocyte reaction of Example 2 (from UniProt Q9EP73 18-132) (ligand)”, for which the binding result is “binds”.
